Measurements from PubChem BioAssay AID504834 (National Center for Advancing Translational Sciences (NCATS), 2011).
Hit rate of the full screen: of about 320,000 compounds, about 22,000 (6.9%) were called active. This list was built around the results that the source calls inconclusive (neither active nor inactive); the mix of calls is not that of the screen. The call rests on the fitted dose curve; in most records, active means well fitted inhibition curve with a large enough effect; inconclusive means small, poorly fitted or top-dose-only effect, or another doubt; inactive means no such curve, though single readings can be large or run the other way. A potency beside an inconclusive call is a rough fit, not a confirmed value.

Test: Primary qHTS for delayed death inhibitors of the malarial parasite plastid, 96 hour incubation
Conditions: P. falciparum luciferase reporter growth; series mostly up to 28.7 µM; activity change, negative = inhibition: at the top concentration
In short: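 Infected RBCs, 2% Hct / 0.05% parasitemia final; luciferase-reporter P. falciparum; cpd 96 h, 37 C, 5% CO2; luciferase detection reagent; luminescence.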
On the % scale 0 is the no-effect control and ±100 the full control effect; potency means the concentration at half of the fitted maximal effect.

Which Potency does the source give for `C[C@@]12C(=O)N(c3cccc(Cl)c3)C(=O)N1[C@H](c1ccc(Cl)cc1)[C@@H]1C(=O)N(C3CCCCC3)C(=O)[C@@H]12` here?
Its Potency is inconclusive: 14.7 µM [inhibitor, single point].

With `CCC(C)NC(=O)c1cn(C)c(=O)c2cc(OC)c(OC)cc12` (stereo not drawn) as the molecule, how does the Potency read?
The Potency was active: 9.28 µM.

Which Potency does the source give for `COc1ccc2sc(-c3ccc(N(C)C)cc3)c(C#CCCO)c2c1` here?
The Potency was inconclusive: 3.7 µM [inhibitor, single point].

For `Cc1cc(OCC(=O)N2CCN(c3ccccc3)CC2)c2c(C)c(C)c(=O)oc2c1`, which “activity change, negative = inhibition” value is on record?
Its value is inactive: 31.9%.

With `CCCCNC(=O)[C@H](Cc1c[nH]c2ccccc12)NC(=O)c1ccccc1Cl` as the molecule, how does the Potency read?
Its Potency is inconclusive: 7.38 µM [inhibitor, partial curve, poor fit].

For `COc1ccc(C2=C(Nc3ccccc3)c3ccccc3C2=O)cc1`, which “activity change, negative = inhibition” value is on record?
The value was inactive: -92.7%.

For `Cc1cccc(NC(=O)C2CCN(S(=O)(=O)c3ccc4c(c3)OCCCO4)CC2)n1`, which Potency is on record?
Its Potency is inconclusive: 18.5 µM [inhibitor, single point].

With `CCCC(=O)N(c1ccc2oc(=O)sc2c1)S(=O)(=O)c1cccs1` as the molecule, how does the Potency read?
The Potency was inconclusive: 11.7 µM [inhibitor, single point].

Which “activity change, negative = inhibition” value does the source give for `Cc1ccc(CNC(=O)C2CC3Cn4c(nc5cc6ccccc6cc54)C3N2C)o1` (stereo not drawn) here?
The value was inactive: 35.4%.

With `Cc1cc(C)c(NC(=O)CNC(=O)Cc2sc(C)nc2-c2ccc(F)cc2)c(C)c1` as the molecule, how does the Potency read?
Its Potency is inconclusive: 11.7 µM [inhibitor, single point].

Which Potency does the source give for `O=C(CC1C(=O)NCCN1Cc1ccccc1C(F)(F)F)NCCN1CCCCC1=O` (stereo not drawn) here?
Its Potency is inconclusive: 18.5 µM [inhibitor, single point].

For `CN1C(=O)/C(=C/c2ccccc2Cl)Sc2ccc(C(=O)NCc3cccnc3)cc21`, which “activity change, negative = inhibition” value is on record?
Its value is inactive: -43.3%.

Which Potency does the source give for `C#CCSc1nnc(-c2sc(-c3ccccc3)nc2C)n1C` here?
The Potency was inconclusive: 0.104 µM [inhibitor, full curve, poor fit].

For `NCCCC[C@H]1CNC(=O)C(=O)N1CCc1cccc(F)c1`, which Potency is on record?
The Potency was inconclusive: 11.7 µM [inhibitor, single point].

Which Potency does the source give for `CCc1ccc(NC(=O)CSc2nc3ccccc3c(=O)n2CCCC(=O)NCCCN2CCOCC2)cc1` here?
The Potency was inconclusive: 20.8 µM [inhibitor, partial curve, poor fit].

Which Potency does the source give for `O=C1CCCC2=C1C1O[C@](c3ccsc3)(Cc3c1ccc1ccccc31)O2` here?
The Potency was inconclusive: 10.4 µM [inhibitor, single point].

Which Potency does the source give for `COc1ccc2cc(CN(CCCN3CCOCC3)Cc3nnnn3C3CCCC3)c(=O)[nH]c2c1` here?
The Potency was active: 5.22 µM.

With `CSc1cccc(NC(=S)N(CCCN2CCCC2)Cc2cccs2)c1` as the molecule, how does the Potency read?
The Potency was inconclusive: 0.037 µM [inhibitor, full curve, poor fit].

With `CCN(C(=O)c1ccccc1)c1ccc([N+](=O)[O-])cc1` as the molecule, how does the Potency read?
Its Potency is active: 8.28 µM.

With `COc1cccc(S(=O)(=O)NCc2ccc(C(=O)Nc3ccc(Cl)c(Cl)c3)cc2)c1` as the molecule, how does the Potency read?
Its Potency is inconclusive: 11.7 µM [inhibitor, partial curve, poor fit].

Which “activity change, negative = inhibition” value does the source give for `CCCC(CCC(=O)NC1CCCCC1)C(=O)O` (stereo not drawn) here?
The value was inactive: 8.77%.

Which Potency does the source give for `CC(C)[C@H](NC(=O)C1CCN(S(=O)(=O)c2ccccc2)CC1)C(=O)NCc1ccco1` here?
Its Potency is inconclusive: 18.5 µM [inhibitor, single point].

For `COc1cccc(OCC(=O)O/N=C(\N)c2ccncc2)c1`, which Potency is on record?
Its Potency is inconclusive: 11.7 µM [inhibitor, partial curve].

With `CCc1ccc(CNCc2cccs2)cc1` as the molecule, how does the “activity change, negative = inhibition” value read?
Its value is inactive: 21.6%.

Which Potency does the source give for `CC(=O)Nc1cccc(NC(=O)Cc2cccs2)c1` here?
Its Potency is inconclusive: 13.1 µM [inhibitor, single point].

With `COc1ccccc1CNC(=O)COC(=O)c1ccc(S(=O)(=O)N2CCCC2)cc1` as the molecule, how does the Potency read?
The Potency was inconclusive: 5.22 µM [inhibitor, partial curve].

With `Cc1ccc(Sc2nc(C)c([N+](=O)[O-])c(C)c2C#N)cc1` as the molecule, how does the Potency read?
Its Potency is inconclusive: 11.7 µM [inhibitor, single point].

Which Potency does the source give for `COc1ccc(C(=O)/C=C/c2cn(CN3CCN(C)CC3)c3ccccc23)cc1` here?
The Potency was inconclusive: 14.7 µM [inhibitor, single point].

Which “activity change, negative = inhibition” value does the source give for `COC(=O)Cn1c(=NC(=O)CCS(=O)(=O)c2ccccc2)sc2c(OC)ccc(OC)c21` here?
The value was inactive: 24.3%.

Which Potency does the source give for `C=CCNC(=S)N/N=C(\C)c1cccc(OC)c1` here?
Its Potency is inconclusive: 18.5 µM [inhibitor, single point].

For `CC1CCc2c(sc3ncn4c(SCC(=O)NCc5ccco5)nnc4c23)C1` (stereo not drawn), which Potency is on record?
Its Potency is inconclusive: 13.1 µM [inhibitor, single point].

With `O=C1C=C(c2ccc3c(c2)OCO3)C[C@@H](c2ccc(Cl)cc2)C1` as the molecule, how does the “activity change, negative = inhibition” value read?
The value was inactive: 44.8%.

Which Potency does the source give for `CC1CC(C)CN(CC(=O)N2c3ccccc3CCc3ccccc32)C1` (stereo not drawn) here?
The Potency was inconclusive: 0.0185 µM [inhibitor, full curve, poor fit].

Which Potency does the source give for `CC(C)c1ccccc1NC(=O)CNCCc1ccc(C(F)(F)F)cc1` here?
The Potency was inconclusive: 2.94 µM [inhibitor, full curve, poor fit].

For `CCCCCn1c(CN2CCN(Cc3ccccc3)CC2)nc2c1c(=O)[nH]c(=O)n2C`, which Potency is on record?
The Potency was inconclusive: 0.586 µM [inhibitor, partial curve, poor fit].

For `CC(=O)N1CC(=O)N=C1SCC(=O)Nc1nc(-c2ccccc2)c(-c2ccccc2)s1`, which Potency is on record?
The Potency was inconclusive: 10.4 µM [inhibitor, single point].

With `COC(=O)c1ccc(N(CC(=O)NC2CCCCC2)C(=O)CNC(=O)c2ccco2)cc1` as the molecule, how does the “activity change, negative = inhibition” value read?
Its value is inactive: -30.1%.

Which “activity change, negative = inhibition” value does the source give for `O=C(O)CC12CSc3[nH]c(=O)sc3C1c1ccccc1OC2=O` (stereo not drawn) here?
Its value is inactive: -19.5%.

For `Cc1ccccc1C(=O)c1cccn1CC(=O)NCCCN1CC(C)CC(C)C1` (stereo not drawn), which Potency is on record?
Its Potency is inconclusive: 3.29 µM [inhibitor, full curve, poor fit].

With `CS(=O)(=O)N1CCC(C(=O)Nc2ccc3c(c2)OCCO3)CC1` as the molecule, how does the “activity change, negative = inhibition” value read?
Its value is inactive: -19.5%.

Which Potency does the source give for `CN(C)C(=S)SC(=S)N(C)C` here?
Its Potency is active: 3.38 µM.

For `COc1ccc(S(=O)(=O)N2CCC(C(=O)NCc3ccco3)CC2)cc1`, which Potency is on record?
The Potency was inconclusive: 9.28 µM [inhibitor, single point].

Which Potency does the source give for `CC(C)(C)NC(=O)C1CCC(CNS(=O)(=O)c2cccc3nsnc23)CC1` (stereo not drawn) here?
The Potency was inconclusive: 4.65 µM [inhibitor, partial curve].

With `CCC(C(=O)NCCCN1CCCCCC1)n1nc(C)c2sc3ccccc3c2c1=O` (stereo not drawn) as the molecule, how does the “activity change, negative = inhibition” value read?
Its value is inactive: -0.52%.

For `COCCNC(=O)c1cc2cc(Br)cc(OC)c2oc1=O`, which Potency is on record?
The Potency was inconclusive: 18.5 µM [inhibitor, single point].

Which Potency does the source give for `COc1ccc(OC)c(N2C(=O)CC(Cc3cc(C)cc(C)c3)C2=O)c1` (stereo not drawn) here?
Its Potency is inconclusive: 10.4 µM [inhibitor, partial curve].

With `COc1ccc([N+](=O)[O-])cc1NC(=O)CC(c1ccccc1)c1ccccc1` as the molecule, how does the “activity change, negative = inhibition” value read?
The value was inactive: 15.3%.

For `CC(OC(=O)C1CC(=O)N(Cc2ccccc2)C1)C(=O)Nc1cccc(C#N)c1` (stereo not drawn), which Potency is on record?
Its Potency is active: 6.57 µM.

With `Cc1cc(C(=O)N/N=C/c2ccc(O)c([N+](=O)[O-])c2)n[nH]1` as the molecule, how does the “activity change, negative = inhibition” value read?
The value was inactive: -28.7%.

For `COc1ccc(N(C)C(=O)c2cn(CC(C)C)c(=O)c3cc(OC)c(OC)cc23)c(OC)c1`, which Potency is on record?
The Potency was inconclusive: 18.5 µM [inhibitor, single point].

Which “activity change, negative = inhibition” value does the source give for `Cc1csc2c(N3CCN(C(=O)c4ccc(C(C)(C)C)cc4)CC3)ncnc12` here?
Its value is inactive: 0%.

For `CCc1nnc(NC(=O)CSc2nnc3c(C)cc4c(C)ccc(C)c4n23)s1`, which Potency is on record?
Its Potency is inconclusive: 14.7 µM [inhibitor, partial curve, poor fit].

With `Cc1ccc(-c2csc3ncnc(SCC(=O)NCC4CCCO4)c23)cc1` (stereo not drawn) as the molecule, how does the Potency read?
Its Potency is inconclusive: 18.5 µM [inhibitor, single point].

Which “activity change, negative = inhibition” value does the source give for `CC1CCC2(CC1)NC(=O)N(CC(=O)NC(=O)Nc1ccc3c(c1)OCCO3)C2=O` (stereo not drawn) here?
The value was inactive: -11.9%.

Which Potency does the source give for `FC(F)(F)c1cc(-c2ccccc2)nc(-n2cc(Cl)cn2)n1` here?
Its Potency is inconclusive: 5.22 µM [inhibitor, partial curve].

For `CCCCOC(=O)C1=C(C)NC(=O)NC1c1ccccc1` (stereo not drawn), which Potency is on record?
The Potency was active: 8.28 µM.

Which Potency does the source give for `C[C@@H]1C(=O)O[C@H]2[C@H]1CC[C@@]1(C)C(=O)C=C[C@@](C)(O)[C@H]21` here?
Its Potency is inconclusive: 4.15 µM [inhibitor, full curve, poor fit].

Which Potency does the source give for `CNC(=S)N(CCc1c(C)[nH]c2ccc(C)cc12)Cc1ccc(OC)c(OC)c1` here?
The Potency was active: 10.4 µM.

Which Potency does the source give for `Cc1cc(N/N=C/c2cccc(F)c2)nc(NCc2ccccc2)n1` here?
The Potency was inconclusive: 2.08 µM [inhibitor, full curve, poor fit].

Which Potency does the source give for `O=C(/C=C/c1ccc(Cl)c([N+](=O)[O-])c1)c1ccc(O)cc1` here?
The Potency was active: 9.28 µM.

With `COc1ccc(/C=C/C(=O)NC(=S)Nc2ccc(S(=O)(=O)N=C(N)N)cc2)cc1OC` as the molecule, how does the Potency read?
Its Potency is inconclusive: 13.1 µM [inhibitor, single point].

Which “activity change, negative = inhibition” value does the source give for `O=C(O)c1ccccc1NC(c1ccccc1)c1ccc(Cl)cc1` (stereo not drawn) here?
Its value is inactive: -9.17%.

Which “activity change, negative = inhibition” value does the source give for `O=C(COC(=O)C1CCN(C(=O)c2ccc(Cl)cc2)CC1)Nc1ccccc1F` here?
Its value is inactive: 22%.

With `COc1ccc(NC(=O)Cc2c[nH]c3ccccc23)cc1S(=O)(=O)N1CCCCC1` as the molecule, how does the Potency read?
Its Potency is inconclusive: 14.7 µM [inhibitor, partial curve, poor fit].

Which Potency does the source give for `O=C(CSc1nc2[nH]c(=O)cc(O)c2s1)Nc1ccc(Br)cc1` here?
Its Potency is inconclusive: 18.5 µM [inhibitor, single point].

With `CCOc1ccc(CCNC(=O)CCCn2nc(C)c3c(C)n(-c4ccccc4)nc3c2=O)cc1` as the molecule, how does the Potency read?
Its Potency is active: 13.1 µM.

For `O=C(NCCC(=O)N1CCN(S(=O)(=O)c2ccc(Cl)cc2)CC1)Nc1ccccc1`, which Potency is on record?
Its Potency is inconclusive: 9.28 µM [inhibitor, partial curve, poor fit].

For `CCOc1ccc2nc(N(CCN(C)C)C(=O)c3cc4ccccc4cc3OC)sc2c1`, which Potency is on record?
The Potency was inconclusive: 11.7 µM [inhibitor, partial curve].
